Results taken from PubChem BioAssay AID1508600 (Functional Genomics Laboratory (NCATS/FGL), 2020).
About 3,700 (7%) of roughly 53,000 sequences were called active.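 The calls were made as follows: active = gene knockdowns whose robust z-score for IL-1 alpha signal is at least 2 or at most -2, so actives lie on both sides; inactive = the rest.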 This is one part of the list.

Test: Components of the Cytosolic LPS Sensing Pathway: Gene Identification via Genome-wide siRNA Screen;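 also: robust z of the log signal after scaling to non-targeting control siRNA wells of the plate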
Details: RAW264.7 macrophages, IL-1a HTRF, actives lie on both sides, screened at 100 nM (by protocol), cells primed 5 h with Pam3CSK4 first
Procedure, shortened: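 Three distinct siRNAs per gene were tested singly at 100 nM in RAW264.7 macrophages. Following Pam3CSK4 priming and 24 hour LipidA transfection, IL-1a secretion was read by HTRF.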

Sequence	z-score
GCGGCUCACAAGAGUAUCGTT against Bend5	inactive: -0.0337
CCGGAGGUUUAGAAGAGGATT against Cep128	inactive: 1.61
GGGAAUGAAUUCAUCUAAATT against Tbc1d1	inactive: -0.115
GGGUUUGUAAUAAUGCUUGTT against Cmtm6	inactive: 0.671
GGUGUAACACUCAUUUAUCTT against Ifitm3	active: 2.88
CGAUGCUGUUCUUCAAUGUTT against Krt222	inactive: 1.23
GCGAUAUAAGAGAGACAAGTT against Tmem40	inactive: 0.982
GGAAUGAGCUGAAUGCAAATT against Psmc5	active: -2.08
GACUCUCACCUCCUUGAAUTT against Krtap6-5	inactive: 0.645
GGAGUCUGAAGAAUACUCUTT against Rbbp8nl	inactive: 0.467
GAGAACGCGUUUUUGGGACTT against Defa5	inactive: 1.66
GCUUUACAUCUUUGAAUGGTT against Bpifa2	inactive: -0.596
GGAGGUGGUGAAUAAGGAUTT against Mcm7	inactive: 0.409
GGCAAACUCGGGUAUACACTT against Mybpc1	inactive: 0.394
GGACUUGAAAGACGAGAUATT against Cyp19a1	inactive: 0.31
GGCUGACAUUAAAAAGGCATT against Dnajc16	inactive: -0.384
CGGAUUUUGAACUAACGCATT against Plcxd1	inactive: -1.11
GGAGGAAAAAAAACAGUGATT against Trim7	inactive: -0.487
GGAGGAAGAAGACUCAGAATT against Prkag2	active: 3.46
GGAGAUAAAGGGAACACCATT against Rtf2	inactive: -0.384
GGAUUGUCAAAAUGUGGACTT against Smyd2	inactive: -1.32
GGUCUCGCUCCAAGGAAGATT against Tra2b	active: 2.56

Sequence	z-score
GCAGUUGGGUUGGUAACUATT against Ash1l	inactive: 0.101
GGAGAAUCAAUGAGUAUCCTT against Apoe	inactive: 0.192
GGUUGUUAAAGGAAAACUATT against Olfr1023	inactive: 0.949
GGAUUGAGUGAACCCUCCCTT against Rpl36	inactive: 1.02
GGUCCAGUGAAAUAAUAUCTT against Orc3	inactive: 0.774
GGUCACAUUCGCUCUCUUGTT against Olfr1155	inactive: 0.238
CGUGAUUGUGGACCAUUCUTT against Mif4gd	inactive: 0.555
GGGAAGGAAGAAUUUAUUUTT against 6430571L13Rik	inactive: 1.24
CCAGACCUGUGGUAAUCUATT against D3Ertd751e	inactive: -0.875
GGCUUAACAGAGAAACACCTT against Lrrc49	inactive: 0.563
GCCCAUGAUAAAAGAAGAATT against Pex1	inactive: -0.429
GGUGGUCAAUCGGAAGCUCTT against Ppp6r1	inactive: 0.482
GAACAAGGCGGACUUCCAATT against Dad1	inactive: 1.16
GGAGUGCUAUGACAAUUUUTT against Slc12a1	inactive: 0.197
GGAGCUCUUUUUGAACACUTT against Sgcg	inactive: 0.946
GGCCGUGUCAUUCAUUGGCTT against Adssl1	inactive: -0.161
GGGUUGUCGUUCAGUUUACTT against Art2a	active: 2.8
CCCGUCAAAUAUGAAUACCTT against Klk1	inactive: 0.273
GCAGCACGAACUGAUGACGTT against Plcd3	active: -2.18
GGUCUUUGAGUCUACACAGTT against Pde4dip	active: -2.52
GGACUCUGAUCUGGAGUAGTT against Slc51a	inactive: -0.397
GGAAAACUUUCAAAGAGAUTT against Mc4r	inactive: 0.24

Sequence	z-score
GCAUCUGAUCUACCAGUCGTT against Prdm9	inactive: 1.4
GGCGGAUGGACUAAUUUACTT against Zap70	inactive: 0.456
GGUGCACUGCCAAUUAUCUTT against Btbd11	inactive: 0.18
CCACUUGUUAGGUUGCUGCTT against Neurog1	inactive: -0.0278
GGAACUGAUGAUCCUCAUGTT against Ube2c	inactive: -0.852
CCAUUGCAUUACCGGUACCTT against Kcna6	inactive: 1.43
GCUGAAUACAGUUGGUGCUTT against Nelfa	inactive: -0.259
CCCAAGGACUAUGAAGUUGTT against Col1a2	inactive: -1.62
GCUCUCACACCCUUAUGUATT against Nptn	inactive: -1.45
GGCUUUGACCCGAAAAGAATT against Tut4	inactive: -0.0161
GGUGACACUCAAGGUGUCATT against Ldlrap1	active: 2.23
CGAGAAUUCCUUGCUCUAATT against Mgat4a	inactive: 0.194
GCCUGUGGUGACAAGCAGATT against Insc	inactive: 0.6
GGAAAGUUUACACUAAAAGTT against Klf6	inactive: 0.508
GGAUUAUCCUCUUUGACACTT against Kremen1	inactive: 0.0285
GGUGCUAAAAACUCAAGUCTT against Dynlt1b	inactive: 0.0983
GGAGGUGUCAGAACACUGUTT against Csf1	inactive: 0.518
GGUAUUAUGAGACAGGAAGTT against Pax5	inactive: -1.61
GCAUCAUCGUUUUUGGAAATT against Slc35e2	inactive: -0.822
GGGCAUUUCCCAAAACAUATT against Elovl2	inactive: 0.391
GGGCAGUCCGUUUCUUAACTT against Kptn	inactive: 0.815
GGUAUAGCAAUUUCUACAATT against Chrna2	inactive: -0.174

Sequence	z-score
GGAUGCAUUGCUGCUGUGGTT against Sptbn1	inactive: 0.326
GGUCUUGUAUGCUAACUGGTT against Fubp1	inactive: 1.55
GGACUACUCGGCCAUCAUUTT against Map3k6	inactive: -1.22
GGGCCAUCUCUCAAUUAUGTT against Gga2	inactive: 1.93
CGGUUCAGCUGUCAUUGAUTT against Slc2a13	inactive: 0.82
GGCUUGUCAGAAUUCUUCUTT against Ccdc178	inactive: 0.234
GGUAAAAGCUACCAUUCAGTT against Ap2a2	inactive: -0.947
GCUUAUUGAAUCCCUCUUATT against Tchhl1	inactive: 0.26
GAGUCCCUUGGCAGCUCAUTT against Klra8	inactive: -0.0989
GGUUUAGUGAAAAACUGCUTT against Hmga2	inactive: 1.16
GGUAGAAACUGACCACAUATT against Aifm1	inactive: 0.917
GGAACAUAUACUGGACAGATT against Zfp825	inactive: 0.436
GGUUUUUUGAGCAUGGGUUTT against Alk	inactive: -0.76
GGCAUGAUAAAGAAUGUCATT against Ppbp	inactive: -1.95
GGAAAUGAAGAAAAGUGACTT against Stk32a	inactive: -0.0588
GGAGGUACCACGAAUCCUUTT against Gm609	inactive: -0.64
CGGUUCAACACAACAACACTT against Cntnap5b	inactive: 0.421
GGUGUGAGCUAUGUGUACATT against Vmn1r62	inactive: 0.584
GGGAAAGGAUUCAAUUAAGTT against Lratd2	inactive: 0.0415
GGACCAUGCUCCCUACUUATT against Prss37	inactive: 0.386
CGAUCUACAAGGACACCGATT against Taf1c	inactive: -0.565
GGAAAUCAGAGCUGAGUUATT against Ankrd6	inactive: 0.0763

Sequence	z-score
GGAGAUAUGGCCAUCACUCTT against Toe1	inactive: 1.11
CCAAGAAGAUUAGAGACAGTT against Olfr591	inactive: 1.25
GGUUUGGAAUCAAAACAAGTT against Caap1	inactive: -0.147
GCAGAAACGAUUGUACCAUTT against Ar	inactive: 1.37
GGAGGGAGUAUCCAUGUCATT against Nr2c2	inactive: 0.209
GGAAAGUCAGCCUUUAGCATT against Prdx3	inactive: -0.589
GGAUGAAGAUGUGGAUCUGTT against Dcaf11	inactive: 0.949
CCCUCCAGCACUUGUUACATT against Palb2	inactive: -0.414
GCACUUCCACGUGUGGAUUTT against Olfr648	inactive: 0.291
GCUGUGUGAAUACCACUUUTT against Cd2bp2	inactive: 0.539
CGAAGGGACCGAAGAAUCCTT against Vcpip1	inactive: -0.86
GGCUUUGAGAUAUGAACAGTT against Arrdc2	active: 2.53
GGGACUGCAUACUUAAGUUTT against Amacr	inactive: 1.31
GGAUGGCUUGUUUGGACAGTT against Ptprn	inactive: 1.34
GCGAGAGCUUCUGUGAAAATT against Rnase13	inactive: -0.958
GGUUAAGAAUAACGAAAGGTT against Pdx1	inactive: -1.15
GGAUCAACUUUGACAAAUATT against Rpl27a	inactive: 0.213
GCUUGCACAAGAUGCUAUATT against Bmt2	inactive: 0.742
CGAACGGAAAAAUGGAAGUTT against Mrtfb	inactive: 0.784
